# Assay results reported in article PMC5996148.
# Amino acid sequences for entries named in this document (tags omitted).
# UniProt P13051, whole entry: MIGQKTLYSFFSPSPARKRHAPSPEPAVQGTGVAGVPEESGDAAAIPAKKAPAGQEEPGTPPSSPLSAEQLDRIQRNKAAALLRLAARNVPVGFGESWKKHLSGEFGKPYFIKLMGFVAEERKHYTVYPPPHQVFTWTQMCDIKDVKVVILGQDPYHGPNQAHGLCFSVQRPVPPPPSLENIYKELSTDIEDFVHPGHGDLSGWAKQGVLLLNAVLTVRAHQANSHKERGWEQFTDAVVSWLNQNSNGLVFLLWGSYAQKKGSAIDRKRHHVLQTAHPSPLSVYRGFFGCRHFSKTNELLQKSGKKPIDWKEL
# This is one part of the list. For some of these results: The source does not settle which construct or isoform was used.
# Experiments:
# Assay in all cases: protein microarray (ProtoArray v5.0), streptavidin-Alexa Fluor 647
# Settings in all cases: 3'-biotin; 20 mM Tris (pH 7.5), 5 mM MgCl2, 100 mM KCl, 0.1% Tween-20, A/T-rich and random oligonucleotide blockers; temperature not stated; high values mean tight binding
# [1] = biological target: UNG (UniProt P13051)
# [2] = tested on: UPF0417 protein FAM163A (human)
# [3] = tested on: UPF0545 protein C22orf39 (human)
# [4] = tested on: UPF0546 membrane protein C1orf91 (human)
# [5] = tested on: UPF0549 protein C20orf43 homolog (human)
# [6] = tested on: UPF0627 protein ENSP00000358171 (human)
# [7] = tested on: UROS (human)
# [8] = tested on: USE1 (human)
# [9] = biological target: T1, USP39 (UniProt Q53GS9)
# T1 sequence: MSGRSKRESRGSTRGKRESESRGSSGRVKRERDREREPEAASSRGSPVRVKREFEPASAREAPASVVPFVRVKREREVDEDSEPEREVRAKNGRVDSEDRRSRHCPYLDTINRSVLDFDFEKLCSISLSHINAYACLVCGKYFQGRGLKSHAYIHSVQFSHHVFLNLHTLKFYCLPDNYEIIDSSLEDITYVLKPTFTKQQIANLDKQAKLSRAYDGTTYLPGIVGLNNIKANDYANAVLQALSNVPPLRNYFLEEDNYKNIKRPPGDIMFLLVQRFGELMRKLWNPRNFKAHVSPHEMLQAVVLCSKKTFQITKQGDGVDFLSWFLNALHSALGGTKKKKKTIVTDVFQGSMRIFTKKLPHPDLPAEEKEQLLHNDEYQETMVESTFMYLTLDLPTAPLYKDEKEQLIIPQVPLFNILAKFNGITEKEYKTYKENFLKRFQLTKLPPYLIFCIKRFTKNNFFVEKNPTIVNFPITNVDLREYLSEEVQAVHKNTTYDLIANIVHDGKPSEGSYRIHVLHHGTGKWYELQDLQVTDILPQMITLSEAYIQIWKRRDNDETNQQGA
# [10] = tested on: USP4 (human)
sequence,measurement,setting,value
GGTGACAGGGGTATGGGGAGGGG [G4-2 biotinylated (Ct1)],binding signal,[1],3.41 z-score
same,binding signal,[2],-0.395 z-score
same,binding signal,[3],-0.366 z-score
same,binding signal,[4],-0.387 z-score
same,binding signal,[5],-0.384 z-score
same,binding signal,[6],-0.367 z-score
same,binding signal,[7],-0.372 z-score
same,binding signal,[8],-0.369 z-score
same,binding signal,[9],5.86 z-score
same,binding signal,[10],-0.375 z-score

# A second format for part of the listing above:
sequence	measurement	setting	value
GGTGACAGGGGTATGGGGAGGGG [G4-2 biotinylated (Ct1)]	binding signal	[9]	5.86 z-score
same	binding signal	[10]	-0.375 z-score
